Experimental findings from article PMC3795256 are described below.

Chains of the proteins cited; added tags and fusions are not shown. Residues count along the entry.
UniProt O08807, residues 41-274: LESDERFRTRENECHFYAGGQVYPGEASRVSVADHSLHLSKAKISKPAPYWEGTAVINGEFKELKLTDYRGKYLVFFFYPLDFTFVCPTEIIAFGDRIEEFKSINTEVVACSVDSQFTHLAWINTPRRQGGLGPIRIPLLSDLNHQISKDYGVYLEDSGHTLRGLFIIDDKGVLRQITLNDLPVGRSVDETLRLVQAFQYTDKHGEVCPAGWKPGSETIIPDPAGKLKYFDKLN

Assay [1] concerns the target Prx4-FLAG (peroxiredoxin 4) (human) (UniProt Q13162). Nature of the assay: co-IP; HeLa cells transfected with Prx4-FLAG or Ero1α-FLAG, with or without 0.25 μM dithiobis succinimidyl propionate (DSP) on ice; anti-FLAG immunoprecipitates eluted by FLAG peptides, Western blot. In general terms: A western blot detects proteins with antibodies after separation by electrophoresis.

Assay [2] addresses T1, Ero1α-FLAG (ER oxidoreductin-1 α, wild type) (human) (UniProt Q96HE7).
T1 sequence: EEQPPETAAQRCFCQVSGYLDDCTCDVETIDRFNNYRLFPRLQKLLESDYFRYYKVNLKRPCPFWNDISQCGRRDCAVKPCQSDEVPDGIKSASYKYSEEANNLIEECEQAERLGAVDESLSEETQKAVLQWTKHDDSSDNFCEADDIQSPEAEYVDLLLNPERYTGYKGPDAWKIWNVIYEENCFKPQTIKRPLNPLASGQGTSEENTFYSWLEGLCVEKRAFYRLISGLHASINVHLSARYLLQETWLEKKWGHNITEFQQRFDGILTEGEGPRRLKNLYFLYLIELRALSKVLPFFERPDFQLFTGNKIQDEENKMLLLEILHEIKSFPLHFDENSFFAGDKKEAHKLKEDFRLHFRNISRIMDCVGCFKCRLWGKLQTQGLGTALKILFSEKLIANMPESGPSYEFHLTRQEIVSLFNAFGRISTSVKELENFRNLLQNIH
Described as above.

Assay [3] addresses T2, endogenous ERp44 (mouse myeloma cells) (mouse (endogenous in J558L myeloma cells)) (UniProt Q9D1Q6).
T2 sequence: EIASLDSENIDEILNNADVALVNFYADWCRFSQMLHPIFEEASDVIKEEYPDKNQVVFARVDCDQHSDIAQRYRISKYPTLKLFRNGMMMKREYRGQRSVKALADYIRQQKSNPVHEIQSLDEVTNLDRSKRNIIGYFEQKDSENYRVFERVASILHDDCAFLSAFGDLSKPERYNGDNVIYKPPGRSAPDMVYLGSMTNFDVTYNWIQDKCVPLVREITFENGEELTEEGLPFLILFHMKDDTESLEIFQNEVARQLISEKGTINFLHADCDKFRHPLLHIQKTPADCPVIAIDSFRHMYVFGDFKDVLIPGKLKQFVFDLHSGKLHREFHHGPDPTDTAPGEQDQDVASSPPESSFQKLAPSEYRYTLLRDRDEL
The assay is described as follows: co-IP; lysates of mouse myeloma J558L cells or J[μs] transfectants immunoprecipitated with anti-ERp44, Western blot; endogenous proteins.

Assay [4] deals with T3, Prx4-FLAG (peroxiredoxin 4) (human), Q13162.
T3 chain: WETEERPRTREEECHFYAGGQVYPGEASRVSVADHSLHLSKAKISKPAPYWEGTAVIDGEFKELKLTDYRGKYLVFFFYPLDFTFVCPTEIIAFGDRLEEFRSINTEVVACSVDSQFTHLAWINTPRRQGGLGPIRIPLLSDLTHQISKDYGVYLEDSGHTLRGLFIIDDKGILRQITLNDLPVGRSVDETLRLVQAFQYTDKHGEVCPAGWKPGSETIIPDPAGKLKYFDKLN
Nature of the assay: co-IP; HeLa cells transfected with Prx4-FLAG or Ero1α-FLAG, with or without 0.25 μM dithiobis succinimidyl propionate (DSP) on ice; anti-FLAG immunoprecipitates eluted by FLAG peptides, Western blot. The conditions noted are these: remark: other sources report otherwise.

Where a chain is given by its changes, count along the chain named. These are yes or no findings as the source states them, for the method shown. In cells and extracts the contact can be indirect. Some results given as binding are weak or reduced against the parent protein; the word gives no strength. For some of these results: Tags and fused reporters may be left off the sequences shown.

B1: P5 (protein, UniProt Q15084 20-440)
chain: LYSSSDDVIELTPSNFNREVIQSDSLWLVEFYAPWCGHCQRLTPEWKKAATALKDVVKVGAVDADKHHSLGGQYGVQGFPTIKIFGSNKNRPEDYQGGRTGEAIVDAALSALRQLVKDRLGGRSGGYSSGKQGRSDSSSKKDVIELTDDSFDKNVLDSEDVWMVEFYAPWCGHCKNLEPEWAAAASEVKEQTKGKVKLAAVDATVNQVLASRYGIRGFPTIKIFQKGESPVDYDGGRTRSDIVSRALDLFSDNAPPPELLEIINEDIAKRTCEEHQLCVVAVLPHILDTGAAGRNSYLEVLLKLADKYKKKMWGWLWTEAGAQSELETALGIGGFGYPAMAAINARKMKFALLKGSFSEQGINEFLRELSFGRGSTAPVGGGAFPTIVEREPWDGRDGELPVEDDIDLSDVELDDLGKDEL
As to B1, the binding entry in assay [1] and in assay [2] was “binds” each time.

B2: ERp44 (protein, UniProt Q9BS26 30-406)
chain: EITSLDTENIDEILNNADVALVNFYADWCRFSQMLHPIFEEASDVIKEEFPNENQVVFARVDCDQHSDIAQRYRISKYPTLKLFRNGMMMKREYRGQRSVKALADYIRQQKSDPIQEIRDLAEITTLDRSKRNIIGYFEQKDSDNYRVFERVANILHDDCAFLSAFGDVSKPERYSGDNIIYKPPGHSAPDMVYLGAMTNFDVTYNWIQDKCVPLVREITFENGEELTEEGLPFLILFHMKEDTESLEIFQNEVARQLISEKGTINFLHADCDKFRHPLLHIQKTPADCPVIAIDSFRHMYVFGDFKDVLIPGKLKQFVFDLHSGKLHREFHHGPDPTDTAPGEQAQDVASSPPESSFQKLAPSEYRYTLLRDRDEL
For the molecule B2, the binding entry in assay [1] and in assay [2] was “binds” each time.

B3: endogenous Prx4 (mouse myeloma cells) (protein, UniProt O08807 41-274)
chain: T3 chain with W1L, T3S, E4D, P7F, E12N, D58N, L98I, R102K, T144N, I173V
Consider B3, for which the binding result in assay [3] is on record as “binds”.

B4: ERp72 (protein, UniProt P13667 21-645)
chain: VAGAEGPDEDSSNRENAIEDEEEEEEEDDDEEEDDLEVKEENGVLVLNDANFDNFVADKDTVLLEFYAPWCGHCKQFAPEYEKIANILKDKDPPIPVAKIDATSASVLASRFDVSGYPTIKILKKGQAVDYEGSRTQEEIVAKVREVSQPDWTPPPEVTLVLTKENFDEVVNDADIILVEFYAPWCGHCKKLAPEYEKAAKELSKRSPPIPLAKVDATAETDLAKRFDVSGYPTLKIFRKGRPYDYNGPREKYGIVDYMIEQSGPPSKEILTLKQVQEFLKDGDDVIIIGVFKGESDPAYQQYQDAANNLREDYKFHHTFSTEIAKFLKVSQGQLVVMQPEKFQSKYEPRSHMMDVQGSTQDSAIKDFVLKYALPLVGHRKVSNDAKRYTRRPLVVVYYSVDFSFDYRAATQFWRSKVLEVAKDFPEYTFAIADEEDYAGEVKDLGLSESGEDVNAAILDESGKKFAMEPEEFDSDTLREFVTAFKKGKLKPVIKSQPVPKNNKGPVKVVVGKTFDSIVMDPKKDVLIEFYAPWCGHCKQLEPVYNSLAKKYKGQKGLVIAKMDATANDVPSDRYKVEGFPTIYFAPSGDKKNPVKFEGGDRDLEHLSKFIEEHATKLSRTKEEL
Turning to B4, in assay [2], the binding entry is “binds”.

B5: ERp72, P13667 21-645 (protein)
chain: B4 chain
For B5, in assay [4], the binding result is “binds”.
